Data: PMC5623693, “Rb‐independent E2F3 promotes cell proliferation and alters expression of genes involved in metabolism and inflammation” (FEBS Open Bio, 2017)
These are yes or no findings as the source states them, for the method shown. Binding seen in cells or lysates may run through a third protein. Some results given as binding are weak or reduced against the parent protein; the word gives no strength.

Sequences of proteins named here, by UniProt entry; tags and fusion partners are left off.
UniProt O35261: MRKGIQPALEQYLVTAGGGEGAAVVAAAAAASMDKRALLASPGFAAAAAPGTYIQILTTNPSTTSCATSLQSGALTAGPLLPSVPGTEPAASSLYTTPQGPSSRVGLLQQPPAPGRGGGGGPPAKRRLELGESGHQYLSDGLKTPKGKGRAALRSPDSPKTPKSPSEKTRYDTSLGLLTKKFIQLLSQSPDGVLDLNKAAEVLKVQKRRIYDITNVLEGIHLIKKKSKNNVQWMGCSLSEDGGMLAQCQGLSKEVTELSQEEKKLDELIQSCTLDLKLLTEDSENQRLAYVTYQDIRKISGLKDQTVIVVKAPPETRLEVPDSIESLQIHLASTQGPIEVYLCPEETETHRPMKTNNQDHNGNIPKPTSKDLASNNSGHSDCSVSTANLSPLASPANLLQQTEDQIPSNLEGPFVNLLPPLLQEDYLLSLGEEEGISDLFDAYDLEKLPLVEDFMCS
UniProt Q14209: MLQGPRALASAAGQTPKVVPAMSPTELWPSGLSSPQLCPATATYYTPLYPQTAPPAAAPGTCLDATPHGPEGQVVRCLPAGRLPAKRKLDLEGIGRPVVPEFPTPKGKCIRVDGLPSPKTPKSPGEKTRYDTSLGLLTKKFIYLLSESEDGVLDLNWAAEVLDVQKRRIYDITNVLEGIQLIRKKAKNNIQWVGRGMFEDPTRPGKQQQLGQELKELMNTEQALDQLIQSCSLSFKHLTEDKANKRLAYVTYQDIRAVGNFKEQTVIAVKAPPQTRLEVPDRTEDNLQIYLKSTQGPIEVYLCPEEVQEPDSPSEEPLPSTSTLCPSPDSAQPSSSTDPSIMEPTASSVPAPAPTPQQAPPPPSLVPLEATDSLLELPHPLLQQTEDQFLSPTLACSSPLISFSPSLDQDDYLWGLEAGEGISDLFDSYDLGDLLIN

Tests used:
[1] = biological target: T1, Rb (full-length, cotransfected) (UniProt P06400); experiment: co-IP; HEK293T cells cotransfected with Rb and HA-tagged E2F; NP40 buffer lysate; Rb IP, western blot with anti-HA
T1 sequence: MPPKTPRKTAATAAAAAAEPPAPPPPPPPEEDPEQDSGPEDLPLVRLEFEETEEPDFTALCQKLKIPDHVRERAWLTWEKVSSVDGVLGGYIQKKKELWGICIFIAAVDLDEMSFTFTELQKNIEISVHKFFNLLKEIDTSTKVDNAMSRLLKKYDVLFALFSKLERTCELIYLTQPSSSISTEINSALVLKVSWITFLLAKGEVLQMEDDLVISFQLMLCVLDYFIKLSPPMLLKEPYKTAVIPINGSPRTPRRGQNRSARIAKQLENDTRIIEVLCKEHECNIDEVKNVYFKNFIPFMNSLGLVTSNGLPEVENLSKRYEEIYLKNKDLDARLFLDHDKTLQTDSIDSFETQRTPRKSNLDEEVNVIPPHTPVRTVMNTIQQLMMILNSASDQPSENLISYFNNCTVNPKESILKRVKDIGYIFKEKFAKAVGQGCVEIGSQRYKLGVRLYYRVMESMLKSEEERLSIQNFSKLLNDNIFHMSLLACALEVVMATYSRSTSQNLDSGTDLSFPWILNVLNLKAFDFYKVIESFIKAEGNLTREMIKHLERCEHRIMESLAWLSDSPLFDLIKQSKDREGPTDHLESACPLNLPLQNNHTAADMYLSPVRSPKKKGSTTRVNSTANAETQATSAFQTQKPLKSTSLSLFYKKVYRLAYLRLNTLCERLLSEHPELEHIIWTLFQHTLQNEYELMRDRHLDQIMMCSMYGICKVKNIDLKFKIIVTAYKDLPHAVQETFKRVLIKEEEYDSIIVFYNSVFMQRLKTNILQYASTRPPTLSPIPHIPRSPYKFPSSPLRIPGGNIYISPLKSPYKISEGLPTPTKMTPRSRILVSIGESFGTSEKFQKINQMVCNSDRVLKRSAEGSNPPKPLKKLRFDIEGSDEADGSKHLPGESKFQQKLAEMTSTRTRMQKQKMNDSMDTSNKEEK

[2] = biological target: endogenous mouse E2F3 (WT MEFs) (mouse (endogenous in MEFs)) (UniProt O35261); experiment: co-IP; endogenous proteins in WT or E2F3 LQ/LQ MEF whole cell lysates; E2F3 IP, immunoblot of Rb

“HA-tagged full-length human E2F2 (WT) (from UniProt Q14209 1-437)” was tested, and the binding [1] was “binds”.

B1: endogenous mouse pRb (MEFs) (protein, UniProt P13405 1-921)
chain: MPPKAPRRAAAAEPPPPPPPPPREDDPAQDSGPEELPLARLEFEEIEEPEFIALCQKLKVPDHVRERAWLTWEKVSSVDGILEGYIQKKKELWGICIFIAAVDLDEMPFTFTELQKSIETSVYKFFDLLKEIDTSTKVDNAMSRLLKKYNVLCALYSKLERTCELIYLTQPSSALSTEINSMLVLKISWITFLLAKGEVLQMEDDLVISFQLMLCVVDYFIKFSPPALLREPYKTAAIPINGSPRTPRRGQNRSARIAKQLENDTRIIEVLCKEHECNIDEVKNVYFKNFIPFINSLGIVSSNGLPEVESLSKRYEEVYLKNKDLDARLFLDHDKTLQTDPIDSFETERTPRKNNPDEEANVVTPHTPVRTVMNTIQQLMVILNSASDQPSENLISYFNNCTVNPKENILKRVKDVGHIFKEKFANAVGQGCVDIGVQRYKLGVRLYYRVMESMLKSEEERLSIQNFSKLLNDNIFHMSLLACALEVVMATYSRSTLQHLDSGTDLSFPWILNVLNLKAFDFYKVIESFIKVEANLTREMIKHLERCEHRIMESLAWLSDSPLFDLIKQSKDGEGPDNLEPACPLSLPLQGNHTAADMYLSPLRSPKKRTSTTRVNSAANTETQAASAFHTQKPLKSTSLALFYKKVYRLAYLRLNTLCARLLSDHPELEHIIWTLFQHTLQNEYELMRDRHLDQIMMCSMYGICKVKNIDLKFKIIVTAYKDLPHAAQETFKRVLIREEEFDSIIVFYNSVFMQRLKTNILQYASTRPPTLSPIPHIPRSPYKFSSSPLRIPGGNIYISPLKSPYKISEGLPTPTKMTPRSRILVSIGESFGTSEKFQKINQMVCNSDRVLKRSAEGGNPPKPLKKLRFDIEGADEADGSKHLPAESKFQQKLAEMTSTRTRMQKQRMNESKDVSNKEEK
With B1 the binding [2] was “binds”.
